Results published in patent US20200172896, “EVOLUTION OF BIOACTIVE SEQUENCE-DEFINED SYNTHETIC POLYMERS USING DNA-TEMPLATED POLYMERIZATION” (President and Fellows of Harvard College, published 2020).
For part of these data: Negatives hold for the conditions tested.

Chains of the proteins cited; added tags and fusions are not shown. Chains listed by the source or under a name are the forms on record and can include a tag or linker.
PCSK9 (Homo sapiens), one chain, as listed by the source, chain 2 of 2: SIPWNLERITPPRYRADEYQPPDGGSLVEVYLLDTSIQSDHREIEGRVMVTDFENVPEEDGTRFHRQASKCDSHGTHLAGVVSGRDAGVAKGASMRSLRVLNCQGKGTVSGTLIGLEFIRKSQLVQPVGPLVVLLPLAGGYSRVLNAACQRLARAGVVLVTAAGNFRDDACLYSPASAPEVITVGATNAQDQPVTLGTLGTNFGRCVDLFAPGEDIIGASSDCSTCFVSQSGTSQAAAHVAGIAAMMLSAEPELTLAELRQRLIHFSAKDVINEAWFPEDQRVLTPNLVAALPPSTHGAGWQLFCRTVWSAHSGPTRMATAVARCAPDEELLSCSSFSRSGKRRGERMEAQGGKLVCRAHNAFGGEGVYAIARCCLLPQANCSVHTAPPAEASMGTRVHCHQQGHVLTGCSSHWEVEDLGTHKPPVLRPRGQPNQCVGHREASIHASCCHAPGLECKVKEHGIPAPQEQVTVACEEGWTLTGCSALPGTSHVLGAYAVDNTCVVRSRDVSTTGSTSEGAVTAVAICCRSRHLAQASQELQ
PCSK9 (Homo sapiens), one chain, as listed by the source, chain 1 of 2: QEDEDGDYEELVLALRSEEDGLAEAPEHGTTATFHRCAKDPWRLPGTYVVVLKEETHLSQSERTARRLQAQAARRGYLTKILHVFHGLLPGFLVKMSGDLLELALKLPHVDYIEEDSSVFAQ

Experiments:
PCSK9 (Homo sapiens) [1] = assay: pull-down; settings: unfunctionalized DNA, no evident binding; purified recombinant protein; protein details: ACROBiosystems PC9-H5223; single-stranded DNA; variant of PCSK9-A5
PCSK9 (Homo sapiens) [2] = assay: SPR; settings: HFNAP side chains as PCSK9-Evo5; no binding up to 300 nM PCSK9; purified recombinant protein; protein details: ACROBiosystems PC9-H5223; label: 3' iSp18-dual biotin; single-stranded DNA; variant of PCSK9-Evo5
PCSK9 (Homo sapiens) [3] = assay: inhibition of the protein; settings: 3' idT, no side chains; unfunctionalized DNA, no inhibition of PCSK9-LDLR binding up to 200 nM; purified recombinant protein; protein details: ACROBiosystems PC9-H5223; single-stranded DNA; variant of PCSK9-Evo5-syn

Does “CGAATCAGATTGGACCAGCCACGTTACTGATTCTTCTACCGTTTTTGCCCCCGGCACCTTCTGGAGTCCAGATGTAGGTAG [PCSK9A5-DNA]” bind (PCSK9 (Homo sapiens) [1])?
Result: no binding

Which Kd (PCSK9 (Homo sapiens) [2]) does the source give for “TGCTACCGTTGTTTACCCTGCCACCTTCTGGAGTCCAGATGTAG [PCSK9-EvoTrunc]” here?
The Kd was over 300 nM.

For “TGCTACCGTTGTTTACCCTGCCACCTTCTGGAGTCCAGATGTAGGTAG [Evo5DNA-InvdT]”, which “functional effect of the aptamer” value (PCSK9 (Homo sapiens) [3]) is on record?
Its value is “not active”.
